{"source": "PubChem BioAssay AID1224831 (NIAID, 2016)", "assay": "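Confirming genome-wide hits on LPS-triggered TNF-alpha induction with independent siRNA sequences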 (follow-up of hits)", "cell system": "human THP-1 B5 monocytic leukaemia cells carrying a TNF promoter luciferase reporter, made macrophage-like with PMA", "reagent": "single siRNA against human genes, 50 nM", "time to read-out": "about 68 h of knock-down, then 4 h LPS", "conditions": "LPS (Salmonella minnesota, TLR-grade) at 10 ng/ml for 4 h; PMA 5 ng/ml present during knock-down", "read-out": "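TNF promoter reporter read as dual luciferase ratio after 4 h LPS, normalised per plate to its median, given as replicate mean robust z-score per siRNA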", "direction": "TNF reporter z-score: higher = stronger LPS-induced TNF reporter signal; z-score, median over gene's siRNAs: higher = stronger TNF reporter signal across the gene's siRNAs", "rule for the call": "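Two-sided call: reduced or raised TNF reporter signal counts as active once mean z reaches about -1 or below, or about 1.5 or above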", "meaning of the calls": "active = changed TNF reporter (either direction); inactive = little change", "note": "Here is a random part of about 3,500 deposited reagents. Of all reagents, 731 (21%) got an active call. 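Active means either lowered or raised reporter signal; the gene-median score did not drive the per-siRNA calls.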 Entries without a mark were called inactive. The numbers tell different reagents against one gene apart."}
{"gene knocked down": "NCOA6", "reagent": 1, "TNF reporter z-score, replicate mean": -0.37, "z-score, median over gene's siRNAs": -0.415}
{"gene knocked down": "NCOA6", "reagent": 2, "TNF reporter z-score, replicate mean": -0.54, "z-score, median over gene's siRNAs": -0.415}
{"gene knocked down": "NCOA6", "reagent": 3, "TNF reporter z-score, replicate mean": -0.9, "z-score, median over gene's siRNAs": -0.415}
{"gene knocked down": "NCOA6", "reagent": 4, "TNF reporter z-score, replicate mean": 0.12, "z-score, median over gene's siRNAs": -0.415}
{"gene knocked down": "NCOA6", "reagent": 5, "TNF reporter z-score, replicate mean": -0.46, "z-score, median over gene's siRNAs": -0.415}
{"gene knocked down": "NCOA6", "reagent": 6, "TNF reporter z-score, replicate mean": -0.32, "z-score, median over gene's siRNAs": -0.415}
{"gene knocked down": "SDE2", "reagent": 1, "TNF reporter z-score, replicate mean": -0.63, "z-score, median over gene's siRNAs": 0.04}
{"gene knocked down": "SDE2", "reagent": 2, "TNF reporter z-score, replicate mean": -0.34, "z-score, median over gene's siRNAs": 0.04}
{"gene knocked down": "SDE2", "reagent": 3, "TNF reporter z-score, replicate mean": 0.13, "z-score, median over gene's siRNAs": 0.04}
{"gene knocked down": "SDE2", "reagent": 4, "TNF reporter z-score, replicate mean": -0.05, "z-score, median over gene's siRNAs": 0.04}
{"gene knocked down": "SDE2", "reagent": 5, "TNF reporter z-score, replicate mean": 0.97, "z-score, median over gene's siRNAs": 0.04}
{"gene knocked down": "SDE2", "reagent": 6, "TNF reporter z-score, replicate mean": 0.55, "z-score, median over gene's siRNAs": 0.04}
{"gene knocked down": "MKX", "reagent": 1, "TNF reporter z-score, replicate mean": -0.49, "z-score, median over gene's siRNAs": -0.02}
{"gene knocked down": "MKX", "reagent": 2, "TNF reporter z-score, replicate mean": 0.05, "z-score, median over gene's siRNAs": -0.02}
{"gene knocked down": "MKX", "reagent": 3, "TNF reporter z-score, replicate mean": 1.16, "z-score, median over gene's siRNAs": -0.02}
{"gene knocked down": "MKX", "reagent": 4, "TNF reporter z-score, replicate mean": -0.09, "z-score, median over gene's siRNAs": -0.02}
{"gene knocked down": "MKX", "reagent": 5, "TNF reporter z-score, replicate mean": -0.73, "z-score, median over gene's siRNAs": -0.02}
{"gene knocked down": "MKX", "reagent": 6, "TNF reporter z-score, replicate mean": 0.46, "z-score, median over gene's siRNAs": -0.02}
{"gene knocked down": "OR8J3", "reagent": 1, "TNF reporter z-score, replicate mean": 1.18, "z-score, median over gene's siRNAs": -0.07}
{"gene knocked down": "OR8J3", "reagent": 2, "TNF reporter z-score, replicate mean": -0.22, "z-score, median over gene's siRNAs": -0.07}
{"gene knocked down": "OR8J3", "reagent": 3, "TNF reporter z-score, replicate mean": 1.12, "z-score, median over gene's siRNAs": -0.07}
{"gene knocked down": "OR8J3", "reagent": 4, "TNF reporter z-score, replicate mean": "-1.74 (active)", "z-score, median over gene's siRNAs": -0.07}
{"gene knocked down": "OR8J3", "reagent": 5, "TNF reporter z-score, replicate mean": -0.5, "z-score, median over gene's siRNAs": -0.07}
{"gene knocked down": "OR8J3", "reagent": 6, "TNF reporter z-score, replicate mean": 0.08, "z-score, median over gene's siRNAs": -0.07}
{"gene knocked down": "TMED10", "reagent": 1, "TNF reporter z-score, replicate mean": "3.15 (active)", "z-score, median over gene's siRNAs": -0.04}
{"gene knocked down": "TMED10", "reagent": 2, "TNF reporter z-score, replicate mean": -0.29, "z-score, median over gene's siRNAs": -0.04}
{"gene knocked down": "TMED10", "reagent": 3, "TNF reporter z-score, replicate mean": -0.05, "z-score, median over gene's siRNAs": -0.04}
{"gene knocked down": "TMED10", "reagent": 4, "TNF reporter z-score, replicate mean": -0.03, "z-score, median over gene's siRNAs": -0.04}
{"gene knocked down": "TMED10", "reagent": 5, "TNF reporter z-score, replicate mean": 0.45, "z-score, median over gene's siRNAs": -0.04}
{"gene knocked down": "TMED10", "reagent": 6, "TNF reporter z-score, replicate mean": -0.6, "z-score, median over gene's siRNAs": -0.04}

Limited to “TNF reporter z-score, replicate mean” (2 entries from above):
NCOA6 #2 = -0.54
NCOA6 #3 = -0.9
